These are yes or no findings as the source states them, for the method shown. Some binding calls cover weakened binding; strength is not graded here.
Molecular target: T1, JNK-interacting protein 1 (JIP-1) (UniProt Q9WVI9)
T1 sequence (looked up): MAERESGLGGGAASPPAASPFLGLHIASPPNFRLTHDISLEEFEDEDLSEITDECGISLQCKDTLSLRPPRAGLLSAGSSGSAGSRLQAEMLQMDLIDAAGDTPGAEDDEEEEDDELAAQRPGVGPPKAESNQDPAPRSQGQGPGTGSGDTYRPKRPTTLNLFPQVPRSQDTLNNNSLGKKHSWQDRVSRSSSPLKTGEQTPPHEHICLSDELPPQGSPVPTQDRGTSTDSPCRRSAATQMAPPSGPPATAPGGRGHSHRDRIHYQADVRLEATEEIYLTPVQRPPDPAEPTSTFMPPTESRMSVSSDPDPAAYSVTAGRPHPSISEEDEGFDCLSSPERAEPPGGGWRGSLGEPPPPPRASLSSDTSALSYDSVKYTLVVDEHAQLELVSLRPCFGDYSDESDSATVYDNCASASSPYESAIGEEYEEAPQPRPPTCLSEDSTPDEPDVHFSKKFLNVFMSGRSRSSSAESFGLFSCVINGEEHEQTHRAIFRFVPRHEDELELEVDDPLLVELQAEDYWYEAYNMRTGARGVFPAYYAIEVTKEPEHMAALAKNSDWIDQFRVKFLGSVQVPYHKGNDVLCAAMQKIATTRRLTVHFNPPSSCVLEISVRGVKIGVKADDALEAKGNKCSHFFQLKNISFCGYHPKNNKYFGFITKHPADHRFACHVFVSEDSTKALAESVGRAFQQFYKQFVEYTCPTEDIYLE
Experiment: IP-FCM with α-JIP-1 beads, lysates of stimulated OT-I T cells

JNK2 (from UniProt Q9WTU6 1-423) (enzyme)
binding: binds
